According to article PMC8315052:
No constants are given. Whether binding was seen depends on the method and setting. In cells and extracts the contact can be indirect. Here binding means that the protein was enriched with, or labelled near, the bait; the list need not be complete.

Protein sequences, listed by entry. Tags and fused reporters are not part of them.
UniProt P06733: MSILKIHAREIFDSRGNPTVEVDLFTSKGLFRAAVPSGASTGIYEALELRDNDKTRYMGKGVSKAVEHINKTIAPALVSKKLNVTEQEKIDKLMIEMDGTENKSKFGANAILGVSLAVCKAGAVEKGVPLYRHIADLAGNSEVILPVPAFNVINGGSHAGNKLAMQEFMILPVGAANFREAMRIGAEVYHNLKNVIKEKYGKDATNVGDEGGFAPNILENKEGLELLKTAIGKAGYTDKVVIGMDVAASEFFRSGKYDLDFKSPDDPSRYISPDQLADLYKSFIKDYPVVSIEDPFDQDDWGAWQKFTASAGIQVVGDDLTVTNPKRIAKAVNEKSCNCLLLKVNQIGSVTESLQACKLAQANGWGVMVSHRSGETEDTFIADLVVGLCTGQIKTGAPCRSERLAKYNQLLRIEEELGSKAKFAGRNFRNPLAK

Molecular target: T1, coiled-coil domain containing 65 (CCDC65), endogenous (human (endogenous in AGS / gastric cancer cells)) (UniProt Q8IXS2)
T1 sequence: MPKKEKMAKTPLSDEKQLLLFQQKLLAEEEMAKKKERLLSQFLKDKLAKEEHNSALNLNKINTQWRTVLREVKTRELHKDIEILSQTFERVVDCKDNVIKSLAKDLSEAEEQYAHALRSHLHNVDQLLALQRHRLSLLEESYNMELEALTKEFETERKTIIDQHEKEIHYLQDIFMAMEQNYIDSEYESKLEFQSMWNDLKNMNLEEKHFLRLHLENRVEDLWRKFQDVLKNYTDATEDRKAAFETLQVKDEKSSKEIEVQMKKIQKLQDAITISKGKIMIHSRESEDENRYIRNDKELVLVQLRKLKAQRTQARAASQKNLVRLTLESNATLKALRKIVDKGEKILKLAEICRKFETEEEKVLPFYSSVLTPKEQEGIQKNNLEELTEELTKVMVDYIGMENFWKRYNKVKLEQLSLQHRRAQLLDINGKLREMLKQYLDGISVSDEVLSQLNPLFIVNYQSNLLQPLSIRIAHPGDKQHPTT
Assay: affinity purification with mass spectrometry; Co-IP of CCDC65 from AGS cells (Pierce Co-IP kit, 1 mg protein, 5 ug antibody, overnight 4 °C); immune complexes to Coomassie staining and mass spectrometry

- binding: binds
Substance: alpha-Enolase (ENO1), endogenous (from UniProt P06733 1-434)
